US20230060388A1
These are yes or no findings as the source states them, for the method shown. A result given as binding can be weak or reduced; the word gives no strength.

Each binder was assayed against recombinant cynomolgus TIGIT (cynomolgus monkey) (assay: ELISA, VHH supernatant).

Row | binding | Binder
1 | binds | 2A3 VHH (VHH) VHH: QVQLVESGGGVVQPGRSLRLSCAASGGSFSSYPMGWFRQAPGKERESVAAISSDMRFTYYADSVKGRFTISRDNSKNTLYLQMNSLRAEDTAVYYCAARDSGVGYYSRAQWYDYWGQGTLVTVSS
2 | binds | 6D8 VHH (VHH) VHH: QVQLVESGGGVVQPGRSLRLSCAASGPSFSSKPMGWFRQAPGKERESVAARSSDGRFTYYADSVKGRFTISRDNSKNTLYLQMNSLRAEDTAVYYCAARDSGSGRYSRAQWYDYWGQGTLVTVSS
3 | binds | 5G10 VHH (VHH) VHH: QVQLVESGGGVVQPGRSLRLSCAASGPRFSSYPMGWFRQAPGKERESVAAISSDGRFTYYADSVKGRFTISRDNSKNTLYLQMNSLRAEDTAVYYCAARDSGSGYYSRAQWYDGWGQGTLVTVSS
4 | binds | 1C7 VHH (VHH) VHH: QVQLVESGGGVVQPGRSLRLSCAASGPSFSSYPMGWFRQAPGKERESVAAISSRGRFTYYADSVKGRFTISRDNSKNTLYLQMNSLRAEDTAVYYCAARGSGSGYYSRAQWYDYWGQGTLVTVSS
5 | binds | 1A10 VHH (VHH) VHH: QVQLVESGGGVVQPGRSLRLSCAASGNSFSSYPMGWFRQAPGKERESVAAISSDGRFSYYADSVKGRFTISRDNSKNTLYLQMNSLRAEDTAVYYCACRDSGSGYYSRAQWYDYWGQGTLVTVSS
6 | binds | 6B11 VHH (VHH) VHH: QVQLVESGGGVVQPGRSLRLSCAASGPSFPSYPMGWFRQAPGKERESVAAISSRGRFTYYADSVKGRFTISRDNSKNTLYLQMNSLRAEDTAVYYCAARDSGSGYYSRLQWYDYWGQGTLVTVSS
7 | binds | 5B5 VHH (VHH) VHH: QVQLVESGGGVVQPGRSLRLSCAASGPSFSSYPMGWFRQAPGKERESVAAISSDTRFTYYADSVKGRFTISRDNSKNTLYLQMNSLRAEDTAVYYCAARDSGSGYYSRAQWYDRWGQGTLVTVSS
8 | binds | 7B11 VHH (VHH) VHH: QVQLVESGGGVVQPGRSLRLSCAASGPSFLIYPMGWFRQAPGKERESVAAISSDGRFWYYADSVKGRFTISRDNSKNTLYLQMNSLRAEDTAVYYCAARDSGSGYYSRVQWYDYWGQGTLVTVSS
9 | binds | 1A8 VHH (VHH) VHH: QVQLVESGGGVVQPGRSLRLSCAASGPSFSSYPMGWFRQAPGKERESVAAISSRGRFTYYADSVKGRFTISRDNSKNTLYLQMNSLRAEDTAVYYCAARDSGSGYYSRAQWYDYWGQGTLVTVSS
10 | binds | 6E9 VHH (VHH) VHH: QVQLVESGGGVVQPGRSLRLSCAASGPSRSSYPMGWFRQAPGKERESVAAISSDGKFTYYADSVKGRFTISRDNSKNTLYLQMNSLRAEDTAVYYCAARDSGSGYYSRANWYDYWGQGTLVTVSS
11 | binds | 2C5 VHH (VHH) VHH: QVQLVESGGGVVQPGRSLRLSCAASGPSFSTYPMGWFRQAPGKERESVAAISSQGRFTYYADSVKGRFTISRDNSKNTLYLQMNSLRAEDTAVYYCAARDSGSGYYSRAQWYDYWGQGTLVTVSS
12 | binds | 6F12 VHH (VHH) VHH: QVQLVESGGGVVQPGRSLRLSCAASGPSFTSYPMGWFRQAPGKERESVAAISSDGRFKYYADSVKGRFTISRDNSKNTLYLQMNSLRAEDTAVYYCAAEDSGSGYYSRAQWYDYWGQGTLVTVSS
13 | binds | 2D5 VHH (VHH) VHH: QVQLVESGGGVVQPGRSLRLSCAASGPSFSSSPMGWFRQAPGKERESVAAISWDGRFTYYADSVKGRFTISRDNSKNTLYLQMNSLRAEDTAVYYCAARDSGSGYYSRAQWYVYWGQGTLVTVSS
14 | binds | 5E8 VHH (VHH) VHH: QVQLVESGGGVVQPGRSLRLSCAASGPSFSSYPMGWFRQAPGKERESVAAQSSDGRFTYYADSVKGRFTISRDNSKNTLYLQMNSLRAEDTAVYYCAARDSGSGYYSRAQWYDYWGQGTLVTVSS
15 | binds | 2A5 VHH (VHH) VHH: QVQLVESGGGVVQPGRSLRLSCAASGPSFSSYPMGWFRQAPGKERESVAAISSVGRFTYYADSVKGRFTISRDNSKNTLYLQMNSLRAEDTAVYYCAARDSGSGYYSRWQWYDYWGQGTLVTVSS
16 | binds | 1G1-1C12 VHH (VHH) VHH: QVQLVESGGGVVQPGRSLRLSCAASGPSFSSYPMGWFRQAPGKERESVAAISSDLRFTYYADSVKGRFTISRDNSKNTLYLQMNSLRAEDTAVYYCAARDSGSGYYSRKQWYDYWGQGTLVTVSS
17 | binds | 1D11 VHH (VHH) VHH: QVQLVESGGGVVQPGRSLRLSCAASGPSFSSSPMGWFRQAPGKERESVAAISSMGRFTYYADSVKGRFTISRDNSKNTLYLQMNSLRAEDTAVYYCAARDSGSGYYSRAQWYDYWGQGTLVTVSS
18 | binds | 2A6 VHH (VHH) VHH: QVQLVESGGGVVQPGRSLRLSCAASGPSFSLYPMGWFRQAPGKERESVAAISSDRRFTYYADSVKGRFTISRDNSKNTLYLQMNSLRAEDTAVYYCAARDSGSGYYSRAQWYDYWGQGTLVTVSS
19 | binds | 6D12 VHH (VHH) VHH: QVQLVESGGGVVQPGRSLRLSCAASGPSFSTYPMGWFRQAPGKERESVAAISSDGVFTYYADSVKGRFTISRDNSKNTLYLQMNSLRAEDTAVYYCAARDSGSGYYSREQWYDYWGQGTLVTVSS
20 | binds | 7F6 VHH (VHH) VHH: QVQLVESGGGVVQPGRSLRLSCAASGPMFSSYPMGWFRQAPGKERESVAAISSDPRFTYYADSVKGRFTISRDNSKNTLYLQMNSLRAEDTAVYYCAARDSGSGYYSRAQWYDYWGQGTLVTVSS
